Laboratory results taken from the supplement of paper PMC8326762, “A Small Molecule Inhibitor of Pex3–Pex19 Interaction Disrupts Glycosome Biogenesis and Causes Lethality in Trypanosoma brucei” (Frontiers in Cell and Developmental Biology, 2021).
Structures can show the parent of a compound that is named as a salt. This is one part of the list. Single values of this set are uncertain.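 Yeast growth was read as optical density at 600 nm. The two-hybrid strains grew without histidine, so growth needed the Pex3–Pex19 binding; a compound counted as trypanosome-selective if it cut growth of the trypanosome-pair strain by more than 65% and the human-pair strain by less than 65%.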

The compounds below were run on T. brucei Pex3-Pex19 interaction (yeast two-hybrid) (assay: growth inhibition of yeast two-hybrid strain reporting TbPex3-TbPex19 interaction, relative to DMSO; higher = stronger inhibition of T. brucei Pex3-Pex19 interaction / growth). Conditions: 100 µM; 24 h.

SMILES	growth inhibition [%]
Clc1ccc(N2CC3CCC(C2)N3)nn1	50.6
C=CCc1ccccc1OCC(O)CNC1(C)CCC(C(C)(C)NC(=O)CBr)CC1 (stereo not drawn) [Bromoacetyl alprenolol menthane]	67.1
COc1cc([C@@H]2c3cc4c(cc3[C@H](O)[C@H]3COC(=O)[C@H]23)OCO4)cc(OC)c1OC [Podophyllotoxin]	74.2
CC(=O)O[C@H]1C[C@@H]2CC[C@@H]3[C@H](CC[C@@]4(C)[C@H]3C[C@H]([N+]3(C)CCCCC3)[C@@H]4OC(C)=O)[C@@]2(C)C[C@@H]1[N+]1(C)CCCCC1 [Pancuronium bromide]	63.2
O=c1ccc2[nH]cc(C3=CCNCC3)c2[nH]1	48.9
Cc1c2ccncc2c(C)c2c1[nH]c1ccccc12 [Ellipticine]	81.5
COc1cc(C(O)CN)ccc1O (racemic) [(±)-Normetanephrine hydrochloride]	67.3
CCCN1CCC[C@@H](c2cccc(O)c2)C1 [S(-)-3PPP hydrochloride]	68
